The supplement of paper PMC10849652
The list shows a part of the results.

Amino acid sequences for entries named in this document (tags omitted). A change or cut given only in a name is not applied to a line headed by its entry.
UniProt A6NKD9: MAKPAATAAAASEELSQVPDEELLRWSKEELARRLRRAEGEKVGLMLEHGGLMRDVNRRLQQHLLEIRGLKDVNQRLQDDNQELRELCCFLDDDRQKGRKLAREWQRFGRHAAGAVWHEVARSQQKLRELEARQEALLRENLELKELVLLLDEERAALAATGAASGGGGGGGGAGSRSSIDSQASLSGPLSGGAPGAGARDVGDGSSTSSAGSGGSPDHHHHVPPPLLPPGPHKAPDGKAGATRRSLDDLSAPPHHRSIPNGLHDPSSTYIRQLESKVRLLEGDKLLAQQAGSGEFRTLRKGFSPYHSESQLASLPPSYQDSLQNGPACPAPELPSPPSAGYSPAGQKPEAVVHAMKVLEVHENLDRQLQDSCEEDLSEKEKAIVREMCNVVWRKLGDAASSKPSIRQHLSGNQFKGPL
UniProt Q9NPF0: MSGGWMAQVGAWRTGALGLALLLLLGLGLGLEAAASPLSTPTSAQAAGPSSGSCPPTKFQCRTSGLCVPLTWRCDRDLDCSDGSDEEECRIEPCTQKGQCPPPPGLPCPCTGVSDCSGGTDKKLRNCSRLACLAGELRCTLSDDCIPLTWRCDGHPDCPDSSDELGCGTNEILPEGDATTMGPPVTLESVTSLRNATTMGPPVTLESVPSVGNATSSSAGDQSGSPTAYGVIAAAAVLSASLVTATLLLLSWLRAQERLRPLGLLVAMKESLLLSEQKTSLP
UniProt Q96S94: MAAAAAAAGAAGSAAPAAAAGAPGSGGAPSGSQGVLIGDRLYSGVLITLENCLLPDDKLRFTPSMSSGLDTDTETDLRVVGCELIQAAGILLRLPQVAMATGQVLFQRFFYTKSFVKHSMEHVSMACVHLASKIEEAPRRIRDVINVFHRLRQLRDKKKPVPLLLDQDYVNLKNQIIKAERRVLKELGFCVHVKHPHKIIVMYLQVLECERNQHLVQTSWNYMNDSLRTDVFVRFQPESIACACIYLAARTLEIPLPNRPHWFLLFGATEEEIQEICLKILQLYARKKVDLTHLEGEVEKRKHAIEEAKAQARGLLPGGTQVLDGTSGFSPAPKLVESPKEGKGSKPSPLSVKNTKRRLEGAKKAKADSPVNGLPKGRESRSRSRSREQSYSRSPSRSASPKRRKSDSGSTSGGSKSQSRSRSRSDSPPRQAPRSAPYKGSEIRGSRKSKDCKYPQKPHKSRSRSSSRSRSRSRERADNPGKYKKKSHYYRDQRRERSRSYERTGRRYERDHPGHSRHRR
UniProt Q96CT7: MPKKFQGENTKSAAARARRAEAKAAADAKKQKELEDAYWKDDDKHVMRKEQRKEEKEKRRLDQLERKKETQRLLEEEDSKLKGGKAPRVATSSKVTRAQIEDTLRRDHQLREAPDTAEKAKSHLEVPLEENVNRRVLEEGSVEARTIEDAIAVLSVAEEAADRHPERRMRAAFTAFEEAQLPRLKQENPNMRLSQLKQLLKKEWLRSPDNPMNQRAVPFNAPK
UniProt P04040: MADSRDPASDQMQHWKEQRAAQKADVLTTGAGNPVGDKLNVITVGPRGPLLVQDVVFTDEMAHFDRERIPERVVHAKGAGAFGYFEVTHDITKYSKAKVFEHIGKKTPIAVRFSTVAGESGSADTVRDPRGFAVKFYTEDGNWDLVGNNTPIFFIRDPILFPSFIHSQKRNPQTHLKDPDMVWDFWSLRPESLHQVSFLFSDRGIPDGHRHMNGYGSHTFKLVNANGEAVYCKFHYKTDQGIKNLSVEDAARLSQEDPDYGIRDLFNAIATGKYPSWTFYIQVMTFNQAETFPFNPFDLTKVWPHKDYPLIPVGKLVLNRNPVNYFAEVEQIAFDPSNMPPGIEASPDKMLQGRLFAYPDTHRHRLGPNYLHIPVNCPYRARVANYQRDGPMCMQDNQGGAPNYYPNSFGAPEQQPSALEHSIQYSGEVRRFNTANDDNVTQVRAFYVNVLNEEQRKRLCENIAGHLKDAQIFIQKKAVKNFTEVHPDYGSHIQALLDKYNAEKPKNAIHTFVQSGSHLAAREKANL
UniProt Q8IVM0: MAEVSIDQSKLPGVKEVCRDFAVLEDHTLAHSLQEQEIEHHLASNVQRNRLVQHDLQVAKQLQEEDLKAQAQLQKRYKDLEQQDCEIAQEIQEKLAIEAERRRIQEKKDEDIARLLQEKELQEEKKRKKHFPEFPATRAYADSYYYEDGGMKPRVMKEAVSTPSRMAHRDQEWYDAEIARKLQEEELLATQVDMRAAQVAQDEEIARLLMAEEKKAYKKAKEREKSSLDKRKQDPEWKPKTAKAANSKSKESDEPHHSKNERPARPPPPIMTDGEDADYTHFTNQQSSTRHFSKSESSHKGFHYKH
UniProt Q9HA77: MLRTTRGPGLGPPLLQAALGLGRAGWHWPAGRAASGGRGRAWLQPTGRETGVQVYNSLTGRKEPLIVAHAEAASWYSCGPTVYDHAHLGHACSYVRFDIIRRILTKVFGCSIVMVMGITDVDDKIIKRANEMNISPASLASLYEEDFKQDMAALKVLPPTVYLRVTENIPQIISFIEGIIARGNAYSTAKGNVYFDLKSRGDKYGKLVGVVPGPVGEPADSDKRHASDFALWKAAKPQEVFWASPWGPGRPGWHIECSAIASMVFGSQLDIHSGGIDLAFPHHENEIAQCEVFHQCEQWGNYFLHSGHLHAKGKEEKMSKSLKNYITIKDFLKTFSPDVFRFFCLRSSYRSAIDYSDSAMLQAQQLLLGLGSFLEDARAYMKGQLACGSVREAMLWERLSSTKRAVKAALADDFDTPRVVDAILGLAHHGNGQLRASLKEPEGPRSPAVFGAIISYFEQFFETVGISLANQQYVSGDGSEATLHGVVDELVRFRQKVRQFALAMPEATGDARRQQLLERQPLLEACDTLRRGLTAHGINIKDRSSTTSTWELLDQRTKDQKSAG
UniProt Q6P1N0: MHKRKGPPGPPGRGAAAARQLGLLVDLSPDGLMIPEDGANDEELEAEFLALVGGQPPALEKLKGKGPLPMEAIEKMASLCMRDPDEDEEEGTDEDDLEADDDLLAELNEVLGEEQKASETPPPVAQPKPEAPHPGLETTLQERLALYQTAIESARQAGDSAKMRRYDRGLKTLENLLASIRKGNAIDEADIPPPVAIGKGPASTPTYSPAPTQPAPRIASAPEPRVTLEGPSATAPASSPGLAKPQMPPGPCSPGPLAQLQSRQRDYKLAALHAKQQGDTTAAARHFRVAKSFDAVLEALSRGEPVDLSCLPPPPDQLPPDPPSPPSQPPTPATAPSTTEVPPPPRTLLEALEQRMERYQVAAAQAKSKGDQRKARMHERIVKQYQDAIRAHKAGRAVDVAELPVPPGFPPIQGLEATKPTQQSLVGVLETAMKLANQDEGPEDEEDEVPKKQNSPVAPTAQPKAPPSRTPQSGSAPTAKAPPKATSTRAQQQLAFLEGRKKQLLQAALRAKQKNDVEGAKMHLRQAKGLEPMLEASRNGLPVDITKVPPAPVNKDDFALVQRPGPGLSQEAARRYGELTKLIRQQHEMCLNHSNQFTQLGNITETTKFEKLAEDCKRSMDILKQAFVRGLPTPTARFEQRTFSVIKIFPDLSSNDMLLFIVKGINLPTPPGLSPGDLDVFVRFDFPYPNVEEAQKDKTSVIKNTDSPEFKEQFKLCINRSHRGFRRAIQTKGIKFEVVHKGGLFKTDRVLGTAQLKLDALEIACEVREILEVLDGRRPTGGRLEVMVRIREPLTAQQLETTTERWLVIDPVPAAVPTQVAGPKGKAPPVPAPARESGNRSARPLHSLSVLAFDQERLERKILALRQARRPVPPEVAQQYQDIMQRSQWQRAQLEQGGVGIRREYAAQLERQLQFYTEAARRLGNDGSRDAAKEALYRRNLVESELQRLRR
UniProt Q8ND76: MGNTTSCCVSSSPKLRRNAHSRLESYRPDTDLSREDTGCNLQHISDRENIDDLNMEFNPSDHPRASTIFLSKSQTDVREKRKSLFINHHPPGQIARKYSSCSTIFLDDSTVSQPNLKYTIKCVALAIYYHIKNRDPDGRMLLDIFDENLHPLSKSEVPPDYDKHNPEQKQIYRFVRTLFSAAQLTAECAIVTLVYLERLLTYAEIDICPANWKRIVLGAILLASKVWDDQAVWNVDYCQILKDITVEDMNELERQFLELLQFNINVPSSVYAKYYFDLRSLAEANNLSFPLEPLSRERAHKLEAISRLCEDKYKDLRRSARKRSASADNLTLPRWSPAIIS
UniProt Q96F63: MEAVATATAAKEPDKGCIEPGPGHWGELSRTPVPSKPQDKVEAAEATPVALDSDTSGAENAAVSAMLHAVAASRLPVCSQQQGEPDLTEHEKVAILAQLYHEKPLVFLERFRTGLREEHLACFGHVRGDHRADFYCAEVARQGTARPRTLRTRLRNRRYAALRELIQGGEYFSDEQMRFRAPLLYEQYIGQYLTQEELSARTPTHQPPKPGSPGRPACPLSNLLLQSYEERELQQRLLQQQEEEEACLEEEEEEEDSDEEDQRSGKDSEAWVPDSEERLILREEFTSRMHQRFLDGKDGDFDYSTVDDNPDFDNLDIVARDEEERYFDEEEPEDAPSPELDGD
UniProt Q9H6F5: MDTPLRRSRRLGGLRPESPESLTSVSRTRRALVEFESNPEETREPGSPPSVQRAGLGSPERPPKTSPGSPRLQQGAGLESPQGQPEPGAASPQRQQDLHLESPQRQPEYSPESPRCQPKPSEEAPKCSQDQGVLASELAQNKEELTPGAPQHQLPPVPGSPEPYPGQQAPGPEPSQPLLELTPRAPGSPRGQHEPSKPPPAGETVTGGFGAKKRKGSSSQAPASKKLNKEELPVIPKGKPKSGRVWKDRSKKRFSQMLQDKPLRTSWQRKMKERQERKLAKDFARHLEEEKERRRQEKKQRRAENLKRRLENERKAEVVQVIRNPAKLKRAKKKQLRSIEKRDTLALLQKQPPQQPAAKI
UniProt P42575: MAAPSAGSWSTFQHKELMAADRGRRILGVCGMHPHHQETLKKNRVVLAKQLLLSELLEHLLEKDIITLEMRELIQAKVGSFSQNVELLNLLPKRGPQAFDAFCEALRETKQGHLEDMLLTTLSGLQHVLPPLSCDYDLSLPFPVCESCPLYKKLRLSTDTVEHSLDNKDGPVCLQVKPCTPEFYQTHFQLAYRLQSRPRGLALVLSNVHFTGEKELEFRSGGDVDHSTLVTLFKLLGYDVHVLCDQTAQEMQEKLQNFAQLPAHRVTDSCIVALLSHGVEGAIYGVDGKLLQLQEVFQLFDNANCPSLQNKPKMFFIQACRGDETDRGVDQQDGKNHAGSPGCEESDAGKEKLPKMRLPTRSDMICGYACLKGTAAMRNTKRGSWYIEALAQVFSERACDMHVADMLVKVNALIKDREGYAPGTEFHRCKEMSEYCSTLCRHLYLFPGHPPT
UniProt O60563, whole entry, looked up: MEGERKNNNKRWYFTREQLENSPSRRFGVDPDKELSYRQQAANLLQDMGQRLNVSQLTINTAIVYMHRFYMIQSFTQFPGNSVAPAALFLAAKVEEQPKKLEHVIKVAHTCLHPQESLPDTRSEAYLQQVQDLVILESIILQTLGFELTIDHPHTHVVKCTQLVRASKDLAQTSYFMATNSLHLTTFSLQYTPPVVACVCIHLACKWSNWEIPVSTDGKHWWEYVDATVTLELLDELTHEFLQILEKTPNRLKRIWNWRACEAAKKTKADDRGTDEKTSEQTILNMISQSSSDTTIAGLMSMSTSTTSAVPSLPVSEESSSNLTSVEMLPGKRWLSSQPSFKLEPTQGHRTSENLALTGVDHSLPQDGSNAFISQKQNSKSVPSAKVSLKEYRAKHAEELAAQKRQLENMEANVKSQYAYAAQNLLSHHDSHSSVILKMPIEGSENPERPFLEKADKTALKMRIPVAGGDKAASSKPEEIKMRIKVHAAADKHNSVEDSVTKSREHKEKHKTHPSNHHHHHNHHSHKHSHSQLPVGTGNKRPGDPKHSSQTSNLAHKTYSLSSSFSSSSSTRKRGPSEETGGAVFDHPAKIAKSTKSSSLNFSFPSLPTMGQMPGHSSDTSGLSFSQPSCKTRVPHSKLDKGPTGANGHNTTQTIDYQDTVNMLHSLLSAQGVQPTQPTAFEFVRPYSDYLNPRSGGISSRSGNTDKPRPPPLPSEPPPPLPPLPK
UniProt Q9Y3X0: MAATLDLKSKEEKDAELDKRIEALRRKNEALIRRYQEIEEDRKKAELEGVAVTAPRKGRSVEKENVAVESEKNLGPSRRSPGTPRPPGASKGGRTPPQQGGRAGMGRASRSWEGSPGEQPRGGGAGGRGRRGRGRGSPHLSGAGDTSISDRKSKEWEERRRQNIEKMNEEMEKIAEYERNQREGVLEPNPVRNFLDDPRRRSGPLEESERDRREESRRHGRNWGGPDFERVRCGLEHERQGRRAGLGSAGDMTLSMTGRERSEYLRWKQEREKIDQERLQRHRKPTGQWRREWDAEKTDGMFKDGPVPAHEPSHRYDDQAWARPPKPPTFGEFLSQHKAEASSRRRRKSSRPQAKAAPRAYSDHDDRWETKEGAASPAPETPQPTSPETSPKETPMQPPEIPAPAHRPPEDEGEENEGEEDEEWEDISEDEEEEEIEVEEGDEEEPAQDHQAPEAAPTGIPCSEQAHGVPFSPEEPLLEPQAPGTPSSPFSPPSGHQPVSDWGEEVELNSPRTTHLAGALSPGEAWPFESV

Experiments:
Test in all cases: log2 fold change, soluble protein after heating vs DMSO (PISA); higher = thermal stabilisation; K562 lysate, 10 uM; active = over 0.2 and 3.5 SD of the protein, either way, in both replicates (recomputed)
[1] = compound: CS(=O)(=O)CCNCc1ccc(-c2ccc3ncnc(Nc4ccc(OCc5cccc(F)c5)c(Cl)c4)c3c2)o1 [lapatinib]
Summary of the method: (§1)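 To prepare the extract, K562 pellets were dounce-homogenised in PBS pH 7.4 with 1 mM MgCl2, giving crude material at 1 mg/mL protein. This was treated with 10 μM compound for 30 min, then heated in aliquots for 3 min over 48°C-58°C before pooling and addition of NP-40 to 0.5% at 4°C. Centrifugation at 21,000xg for 90 min left soluble protein in the supernatant, which TMTpro 16plex LC-MS/MS quantified with equalised channel sums. Results are log-two fold changes in thermal stability compared with solvent controls, from duplicates.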

[2] = compound: CS(=O)(=O)N1CCN(Cc2cc3nc(-c4cccc5[nH]ncc45)nc(N4CCOCC4)c3s2)CC1 [pictilisib]
Summary of the method: as §1

[3] = compound: C[C@@H](Oc1cc(-c2cnn(C3CCNCC3)c2)cnc1N)c1c(Cl)ccc(F)c1Cl [crizotinib]
Summary of the method: as §1

[4] = compound: C[C@H](C1=CC=C(C=C1)C(=O)NC2=C3C=CNC3=NC=C2)N
Summary of the method: as §1

[5] = compound: C[C@H](Nc1ncnc2nc[nH]c12)c1cc2cccc(Cl)c2c(=O)n1-c1ccccc1 [duvelisib]
Summary of the method: as §1

[6] = compound: Cc1cc(Nc2cc(CN3CCOCC3)c3nc(C)c(Cc4ccc(Cl)cc4F)n3n2)n[nH]1 [gandotinib]
Summary of the method: as §1

[7] = compound: Cc1cc(Nc2cc(N3CCN(C)CC3)nc(Sc3ccc(NC(=O)C4CC4)cc3)n2)n[nH]1 [tozasertib]
Summary of the method: as §1

[8] = compound: Cc1ccc(-n2nc(C(C)(C)C)cc2NC(=O)Nc2ccc(OCCN3CCOCC3)c3ccccc23)cc1 [doramapimod]
Summary of the method: as §1

[9] = compound: Cc1ccc(NC(=O)c2ccc(CN3CC[C@H](N(C)C)C3)c(C(F)(F)F)c2)cc1Nc1nccc(-c2cncnc2)n1 [bafetinib]
Summary of the method: as §1

[10] = compound: Cc1cccc(CC(=O)N2CCc3c2ccc(-c2cn(C)c4ncnc(N)c24)c3F)n1
Summary of the method: as §1

[11] = compound: Cc1cn(-c2cc(NC(=O)c3ccc(C)c(Nc4nccc(-c5cccnc5)n4)c3)cc(C(F)(F)F)c2)cn1 [nilotinib]
Summary of the method: as §1

[12] = compound: Cc1nc(Nc2n[nH]c3c2CN(C(=O)N[C@H](CN(C)C)c2ccccc2)C3(C)C)c2sccc2n1
Summary of the method: as §1

[13] = compound: Cc1nc(Nc2ncc(C(=O)Nc3c(C)cccc3Cl)s2)cc(N2CCN(CCO)CC2)n1 [dasatinib]
Summary of the method: as §1

[14] = compound: Cc1ncc(-c2ccnc(Nc3ccc(S(C)(=O)=O)cc3)n2)n1C(C)C
Summary of the method: as §1

[15] = compound: Cn1cc(-c2ccc3c(c2)CCN3C(=O)Cc2cccc(C(F)(F)F)c2)c2c(N)ncnc21
Summary of the method: as §1

[16] = compound: Cn1cc(CNCC2CCN(c3ncc(C(=O)NO)cn3)CC2)c2ccccc21 [quisinostat]
Summary of the method: as §1

[17] = compound: Cn1cncc1[C@@](N)(c1ccc(Cl)cc1)c1ccc2c(c1)c(-c1cccc(Cl)c1)cc(=O)n2C [tipifarnib]
Summary of the method: as §1

[18] = compound: NC(=O)Nc1cc(-c2cccc(F)c2)sc1C(=O)N[C@H]1CCCNC1
Summary of the method: as §1

[19] = compound: NC(=O)c1cnc(N[C@@H]2CCCC[C@@H]2N)nc1Nc1cccc(-n2nccn2)c1
Summary of the method: as §1

[20] = compound: NC1(c2ccc(-c3nc4ccn5c(=O)[nH]nc5c4cc3-c3ccccc3)cc2)CCC1
Summary of the method: as §1

Measured: log2 fold change

CCDC85C (UniProt A6NKD9)
inactive: [1] 0.118 | [2] -0.002 | [3] 0.02 | [4] -0.076 | [5] 0.082 | [6] 0.145 | [7] 0.082 | [8] -0.132 | [9] -0.036 | [10] 0.032 | [11] 0.093 | [12] 0.113 | [13] -0.062 | [14] -0.111 | [15] 0.004 | [16] 0.09 | [17] -0.079 | [18] 0.063 | [19] 0.01

CD47 (UniProt Q08722)
inactive: [1] -0.001 | [2] 0.036 | [3] 0.004 | [4] -0.123 | [5] 0.016 | [6] 0.064 | [7] -0.008 | [8] 0.001 | [9] -0.056 | [10] 0.023 | [11] -0.01 | [12] -0.036 | [13] 0.031 | [14] 0 | [15] 0.029 | [16] -0.067 | [17] -0.001 | [18] 0 | [19] -0.002 | [20] 0.018

CD320 (UniProt Q9NPF0)
inactive: [1] 0.017 | [2] -0.003 | [3] 0.012 | [4] -0.083 | [5] 0.064 | [6] 0.034 | [7] 0.039 | [8] 0.012 | [9] 0.08 | [10] 0.077 | [11] -0.046 | [12] 0.036 | [13] -0.025 | [14] 0.061 | [15] 0.001 | [16] 0.076 | [17] -0.07 | [18] 0.016 | [19] 0.019 | [20] -0.047

CCNL2 (UniProt Q96S94)
inactive: [1] -0.013 | [2] -0.033 | [3] 0.004 | [4] 0.013 | [5] 0.061 | [6] -0.072 | [7] 0.208 | [8] -0.041 | [9] -0.148 | [10] -0.024 | [11] 0.046 | [12] -0.024 | [13] -0.02 | [14] 0.022 | [15] 0 | [16] -0.021 | [17] 0.035 | [18] 0.05 | [19] 0.043 | [20] -0.002

CCDC124 (UniProt Q96CT7)
inactive: [1] -0.012 | [2] -0.002 | [3] 0.037 | [4] 0.07 | [5] -0.003 | [6] -0.017 | [7] 0.001 | [8] 0.017 | [9] 0.054 | [10] -0.045 | [11] 0.028 | [12] -0.012 | [13] 0.008 | [14] 0.018 | [15] -0.021 | [16] 0.021 | [17] 0.071 | [18] -0.014 | [19] -0.02 | [20] -0.027

CAT (UniProt P04040)
inactive: [1] -0.036 | [2] -0.032 | [3] 0.009 | [4] 0.001 | [5] 0.019 | [6] 0.031 | [7] -0.019 | [8] -0.003 | [9] 0.013 | [10] -0.011 | [11] 0.035 | [12] -0.032 | [13] 0.018 | [14] 0.011 | [15] -0.017 | [16] -0.017 | [17] -0.003 | [18] -0.006 | [19] -0.008 | [20] 0.02

CCDC50 isoform 2 (UniProt Q8IVM0)
inactive: [1] -0.022 | [2] 0.01 | [3] 0.033 | [4] -0.014 | [5] 0.003 | [6] 0.025 | [7] 0.065 | [8] -0.003 | [9] -0.026 | [10] -0.02 | [11] -0.055 | [12] 0.019 | [13] 0.008 | [14] -0.002 | [15] 0.076 | [16] -0.008 | [17] 0.017 | [18] -0.014 | [19] -0.003 | [20] 0.057

CARS2 (UniProt Q9HA77)
inactive: [1] -0.09 | [2] -0.074 | [3] -0.023 | [4] 0.013 | [5] -0.033 | [6] -0.022 | [7] 0.053 | [8] 0.005 | [9] -0.047 | [10] -0.002 | [11] 0.022 | [12] 0.014 | [13] 0.012 | [14] 0.048 | [15] 0.046 | [16] 0.036 | [17] -0.008 | [18] -0.006 | [19] -0.068 | [20] 0.009

CC2D1A (UniProt Q6P1N0)
inactive: [1] 0.038 | [2] -0.002 | [3] -0.057 | [4] -0.006 | [5] -0.003 | [6] 0.01 | [7] 0.053 | [8] 0.058 | [9] -0.049 | [10] -0.01 | [11] -0.013 | [12] -0.011 | [13] -0.022 | [14] -0.003 | [15] -0.031 | [16] -0.047 | [17] 0.023 | [18] -0.007 | [19] 0.023 | [20] 0.043

CCNA2 (UniProt P20248)
active: [14] 0.234
inactive: [1] -0.004 | [2] -0.029 | [3] -0.035 | [4] -0.092 | [5] 0.019 | [6] 0.091 | [7] -0.073 | [8] 0.059 | [9] 0.027 | [10] 0.049 | [11] -0.014 | [12] 0.064 | [13] 0.04 | [15] -0.051 | [16] -0.086 | [17] -0.015 | [18] 0.005 | [19] 0.063 | [20] -0.021

CCNY (UniProt Q8ND76)
inactive: [1] -0.061 | [2] -0.044 | [3] -0.035 | [4] -0.094 | [5] -0.057 | [6] 0.081 | [7] 0.056 | [8] 0.033 | [9] -0.073 | [10] 0.054 | [11] 0.017 | [12] 0.016 | [13] -0.021 | [14] 0.05 | [15] 0.065 | [16] -0.216 | [17] 0.057 | [18] 0.077 | [19] -0.022 | [20] 0.025

CCDC97 (UniProt Q96F63)
inactive: [1] -0.013 | [2] -0.066 | [3] 0.04 | [4] 0.109 | [5] -0.042 | [6] -0.068 | [7] 0.113 | [8] -0.005 | [9] 0.036 | [10] -0.074 | [11] -0.005 | [12] -0.01 | [13] -0.005 | [14] 0.02 | [15] 0.009 | [16] -0.018 | [17] 0.042 | [18] 0.017 | [19] -0.038 | [20] -0.008

CCDC86 (UniProt Q9H6F5)
inactive: [1] 0.001 | [2] -0.033 | [3] 0 | [4] -0.055 | [5] 0.004 | [6] 0.02 | [7] -0.028 | [8] -0.008 | [9] -0.012 | [10] 0.062 | [11] 0.047 | [12] 0.017 | [13] 0.054 | [14] 0.06 | [15] -0.009 | [16] -0.02 | [17] 0.035 | [18] 0.001 | [19] 0.025 | [20] -0.024

CASP2 (UniProt P42575)
inactive: [1] -0.001 | [2] 0.008 | [3] 0.045 | [4] -0.066 | [5] 0.004 | [6] 0.055 | [7] 0.007 | [8] -0.004 | [9] 0.029 | [10] 0.046 | [11] 0.03 | [12] 0.001 | [13] 0.019 | [14] 0.006 | [15] -0.026 | [16] 0.066 | [17] 0.009 | [18] 0.013 | [19] 0.004 | [20] 0.012

Three successive entries out of the list so far, for reference:
CCDC124 (UniProt Q96CT7)
inactive: [1] -0.012 | [2] -0.002 | [3] 0.037 | [4] 0.07 | [5] -0.003 | [6] -0.017 | [7] 0.001 | [8] 0.017 | [9] 0.054 | [10] -0.045 | [11] 0.028 | [12] -0.012 | [13] 0.008 | [14] 0.018 | [15] -0.021 | [16] 0.021 | [17] 0.071 | [18] -0.014 | [19] -0.02 | [20] -0.027

CAT (UniProt P04040)
inactive: [1] -0.036 | [2] -0.032 | [3] 0.009 | [4] 0.001 | [5] 0.019 | [6] 0.031 | [7] -0.019 | [8] -0.003 | [9] 0.013 | [10] -0.011 | [11] 0.035 | [12] -0.032 | [13] 0.018 | [14] 0.011 | [15] -0.017 | [16] -0.017 | [17] -0.003 | [18] -0.006 | [19] -0.008 | [20] 0.02

CCDC50 isoform 2 (UniProt Q8IVM0)
inactive: [1] -0.022 | [2] 0.01 | [3] 0.033 | [4] -0.014 | [5] 0.003 | [6] 0.025 | [7] 0.065 | [8] -0.003 | [9] -0.026 | [10] -0.02 | [11] -0.055 | [12] 0.019 | [13] 0.008 | [14] -0.002 | [15] 0.076 | [16] -0.008 | [17] 0.017 | [18] -0.014 | [19] -0.003 | [20] 0.057

Continuation.

CCNT1 (UniProt O60563)
inactive: [1] 0.004 | [2] 0.113 | [3] 0.031 | [4] 0.001 | [5] -0.002 | [6] -0.037 | [7] -0.006 | [8] 0.007 | [9] -0.047 | [10] 0.045 | [11] 0.002 | [12] -0.044 | [13] -0.033 | [14] -0.034 | [15] -0.094 | [16] -0.028 | [17] -0.074 | [18] 0.013 | [19] 0.191 | [20] 0.042

CCDC9 (UniProt Q9Y3X0)
inactive: [1] 0.034 | [2] 0.037 | [3] 0.019 | [4] 0.009 | [5] -0.011 | [6] 0.015 | [7] -0.029 | [8] 0.004 | [9] 0.008 | [10] -0.015 | [11] -0.014 | [12] -0.047 | [13] 0.007 | [14] 0.011 | [15] -0.006 | [16] -0.01 | [17] 0.05 | [18] -0.006 | [19] 0.003 | [20] 0.041
